Reference: PubChem BioAssay AID1259405 (NCATS, 2018)

Assay: 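Mouse-designed siRNAs used to find CHO productivity engineering targets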 (primary screen)
Cells: Chinese hamster CHO-K1 ovary cells with stable secreted eGFP expression
Reagents: single siRNA against mouse genes, 0.8 pmol siRNA per well (2 µl of 400 nM stock)
Timing: 3 days
Read-out: 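Per-well intracellular GFP measured by laser scanning cytometry, plus viability from ATP luminescence, each relative to plate median of non-targeting control wells, in %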
Reading the numbers: GFP, % of control: higher = more GFP per well, higher productivity; viability (ATP), % of control: higher = more viable cells (more ATP)
Rule for the call: 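Called active when intracellular GFP, relative to negative control, is at or above 120%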
Here is one part, drawn at random, of about 50,000 reagents tested. About 4,000 of them (8%) count as active. 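Mouse siRNA library applied to hamster cells; one well for each siRNA.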 A number with no mark means an inactive call. No sequences are given here.

| gene knocked down | PubChem SID | GFP, % of control | viability (ATP), % of control |
| --- | --- | --- | --- |
| Dync2i2 (dynein 2 intermediate chain 2) | SID363541351 | 107 | 52.7 |
| Dync2i2 (dynein 2 intermediate chain 2) | SID363555978 | 55.1 | 49.7 |
| Dync2i2 (dynein 2 intermediate chain 2) | SID363566267 | 83.2 | 53.9 |
| Cebpz (CCAAT/enhancer binding protein zeta) | SID363573276 | 59.9 | 62.8 |
| Cebpz (CCAAT/enhancer binding protein zeta) | SID363588515 | 51.6 | 67 |
| Ppil2 (peptidylprolyl isomerase (cyclophilin)-like 2) | SID363568682 | 182 (active) | 122 |
| Ppil2 (peptidylprolyl isomerase (cyclophilin)-like 2) | SID363576074 | 105 | 81 |
| Ppil2 (peptidylprolyl isomerase (cyclophilin)-like 2) | SID363578890 | 96 | 72.6 |
| B3gnt7 | SID363570665 | 140 (active) | 105 |
| B3gnt7 | SID363579465 | 86.8 | 141 |
| B3gnt7 | SID363583337 | 99.6 | 102 |
| Med18 (mediator complex subunit 18) | SID363543757 | 39.9 | 35.6 |
| Med18 (mediator complex subunit 18) | SID363551493 | 74.5 | 88.4 |
| Med18 (mediator complex subunit 18) | SID363559098 | 67.6 | 77.1 |
| Gstm4 (glutathione S-transferase, mu 4) | SID363570487 | 87.8 | 67.5 |
| Gstm4 (glutathione S-transferase, mu 4) | SID363579287 | 107 | 117 |
| Gstm4 (glutathione S-transferase, mu 4) | SID363583159 | 128 (active) | 102 |
| Rgs14 (regulator of G-protein signaling 14) | SID363570207 | 67.1 | 93.6 |
| Rgs14 (regulator of G-protein signaling 14) | SID363576543 | 93 | 107 |
| Rgs14 (regulator of G-protein signaling 14) | SID363579711 | 58.5 | 58.7 |
| Actc1 (actin, alpha, cardiac muscle 1) | SID363572452 | 104 | 107 |
| Actc1 (actin, alpha, cardiac muscle 1) | SID363574212 | 59.4 | 70.4 |
| Gga1 | SID363547763 | 125 (active) | 76.5 |
| Gga1 | SID363558532 | 92.4 | 78 |
| Gga1 | SID363560290 | 89.8 | 89.6 |
| Ndor1 (NADPH dependent diflavin oxidoreductase 1) | SID363572909 | 77.1 | 114 |
| Ndor1 (NADPH dependent diflavin oxidoreductase 1) | SID363577485 | 96.4 | 73.7 |
| Ndor1 (NADPH dependent diflavin oxidoreductase 1) | SID363581005 | 79.8 | 70.9 |
| Gcnt3 (glucosaminyl (N-acetyl) transferase 3, mucin type) | SID363570390 | 99.8 | 134 |
| Gcnt3 (glucosaminyl (N-acetyl) transferase 3, mucin type) | SID363579190 | 72.9 | 154 |
| Gcnt3 (glucosaminyl (N-acetyl) transferase 3, mucin type) | SID363583062 | 70.2 | 95.3 |
| Rab34 (RAB34, member RAS oncogene family) | SID363570043 | 93.1 | 108 |
| Rab34 (RAB34, member RAS oncogene family) | SID363576379 | 140 (active) | 107 |
| Rab34 (RAB34, member RAS oncogene family) | SID363579547 | 34.3 | 42.4 |
| Piwil2 (piwi-like RNA-mediated gene silencing 2) | SID363554691 | 77.4 | 68.7 |
| Piwil2 (piwi-like RNA-mediated gene silencing 2) | SID363568138 | 95.6 | 91.7 |
| Piwil2 (piwi-like RNA-mediated gene silencing 2) | SID363586197 | 94 | 76.3 |
| Or7a41 (olfactory receptor family 7 subfamily A member 41) | SID363554341 | 115 | 81.6 |
| Or7a41 (olfactory receptor family 7 subfamily A member 41) | SID363567788 | 95 | 71.6 |
| Or7a41 (olfactory receptor family 7 subfamily A member 41) | SID363585145 | 48.4 | 88.5 |
| Fv1 (Friend virus susceptibility 1) | SID363539929 | 89.9 | 103 |
| Fv1 (Friend virus susceptibility 1) | SID363561230 | 70.6 | 83.3 |
| Fv1 (Friend virus susceptibility 1) | SID363564266 | 80.7 | 56.4 |
| Fam216b (family with sequence similarity 216, member B) | SID363546763 | 138 (active) | 59.7 |
| Fam216b (family with sequence similarity 216, member B) | SID363548519 | 75.9 | 90.9 |
| Fam216b (family with sequence similarity 216, member B) | SID363560697 | 35.8 | 29.8 |
| Cntnap5b (contactin associated protein-like 5B) | SID363544276 | 93.6 | 83.3 |
| Cntnap5b (contactin associated protein-like 5B) | SID363550604 | 74.8 | 63.3 |
| Cntnap5b (contactin associated protein-like 5B) | SID363557153 | 49.3 | 62.9 |
| Kif9 (kinesin family member 9) | SID363540227 | 48.5 | 64.4 |
| Kif9 (kinesin family member 9) | SID363541979 | 57.1 | 66.7 |
| Kif9 (kinesin family member 9) | SID363566895 | 119 | 46.8 |
| Abcd3 (ATP-binding cassette, sub-family D member 3) | SID363574667 | 75.2 | 78.2 |
| Abcd3 (ATP-binding cassette, sub-family D member 3) | SID363575723 | 78.8 | 85.3 |
| Abcd3 (ATP-binding cassette, sub-family D member 3) | SID363580299 | 95.2 | 55.8 |
| Slc22a17 | SID363541614 | 61.9 | 63.5 |
| Slc22a17 | SID363553206 | 43.3 | 57.5 |
| Slc22a17 | SID363566530 | 67.8 | 65.7 |
| Nipsnap1 (nipsnap homolog 1) | SID363553650 | 52.3 | 65.1 |
| Nipsnap1 (nipsnap homolog 1) | SID363561607 | 93.6 | 61.3 |
| Nipsnap1 (nipsnap homolog 1) | SID363565345 | 68.6 | 62.4 |
| Zbtb11os1 (zinc finger and BTB domain containing 11, opposite strand 1) | SID363543459 | 103 | 95.4 |
| Zbtb11os1 (zinc finger and BTB domain containing 11, opposite strand 1) | SID363552952 | 84.8 | 87.2 |
| Zbtb11os1 (zinc finger and BTB domain containing 11, opposite strand 1) | SID363558800 | 75.4 | 70.9 |
| Myo7b (myosin VIIB) | SID363541448 | 46.8 | 60 |
| Myo7b (myosin VIIB) | SID363556075 | 74.6 | 80.2 |
| Myo7b (myosin VIIB) | SID363566364 | 76.5 | 66.6 |
| Fam13b (family with sequence similarity 13, member B) | SID363546521 | 9.11 | 7.48 |
| Fam13b (family with sequence similarity 13, member B) | SID363548277 | 81.9 | 76.6 |
| Fam13b (family with sequence similarity 13, member B) | SID363560455 | 64.6 | 66.9 |
| H3c7 (H3 clustered histone 7) | SID363546056 | 43.3 | 77.8 |
| H3c7 (H3 clustered histone 7) | SID363549569 | 73.4 | 91.1 |
| H3c7 (H3 clustered histone 7) | SID363563375 | 39.2 | 28.8 |
| Moxd2 (monooxygenase, DBH-like 2) | SID363545357 | 71.9 | 98.9 |
| Moxd2 (monooxygenase, DBH-like 2) | SID363548870 | 64.3 | 67.7 |
| Moxd2 (monooxygenase, DBH-like 2) | SID363562676 | 50 | 48.3 |
| Lpcat3 (lysophosphatidylcholine acyltransferase 3) | SID363581659 | 65 | 92.5 |
| Lpcat3 (lysophosphatidylcholine acyltransferase 3) | SID363589153 | 95 | 89.9 |
| Ift88 (intraflagellar transport 88) | SID363570543 | 62.5 | 85.6 |
| Ift88 (intraflagellar transport 88) | SID363579343 | 109 | 112 |
| Ift88 (intraflagellar transport 88) | SID363583215 | 71.6 | 117 |
| Krtap5-2 (keratin associated protein 5-2) | SID363540909 | 72 | 80.2 |
| Krtap5-2 (keratin associated protein 5-2) | SID363555536 | 70 | 62.5 |
| Krtap5-2 (keratin associated protein 5-2) | SID363565825 | 75.7 | 101 |

Records listed so far whose gene name begins with D or d:
| gene knocked down | PubChem SID | GFP, % of control | viability (ATP), % of control |
| --- | --- | --- | --- |
| Dync2i2 (dynein 2 intermediate chain 2) | SID363541351 | 107 | 52.7 |
| Dync2i2 (dynein 2 intermediate chain 2) | SID363555978 | 55.1 | 49.7 |
| Dync2i2 (dynein 2 intermediate chain 2) | SID363566267 | 83.2 | 53.9 |
